{"source": "patent US20240226067A9", "about": "“ANTI-FIBROTIC THERAPIES” (THE JOHNS HOPKINS UNIVERSITY, priority 2021, published 2024)", "tested_on": "CCO18CD colon fibroblasts stimulated with TGF-β", "assay": "High throughput microscopy-based anti-fibrotic drug screen (α-SMA and collagen 1 expression)", "assay_type": "cell-based", "description": "FIG. 1 is images of cells from high throughput microscopy-based analysis of an FDA-approved drug library for potential anti-fibrotic properties.\nFIGS. 3A-3C are images of cells from high throughput microscopy-based analysis of potential drugs for anti-fibrotic properties."}
{"smiles": "Clc1ccc(CSC(Cn2ccnc2)c2ccc(Cl)cc2Cl)cc1", "note": "(centres unmarked) [sulconazole, 1-[2-[(4-chlorophenyl)methylsulfanyl]-2-(2,4-dichlorophenyl)ethyl]imidazole]", "values": [{"measurement": "fold lower effective concentration compared to pirfenidone", "setting": "10 μM versus 4 mM", "result": 400, "unit": "fold"}, {"measurement": "concentration causing reduction in α-SMA and collagen production", "setting": "TGF-β stimulated colon fibroblasts, effect similar to pirfenidone", "result": 10, "unit": "µM"}]}
